Residue numbers refer to the chain shown, from its start. Names and notes keep the numbering of the source. No constants are given. Whether binding was seen depends on the method and setting. Binding seen in cells or lysates may run through a third protein. Some binding calls cover weakened binding; strength is not graded here. Sequences can lack the tags named with a protein.

This experiment concerns the target T1, Cnd2-Pk (fission yeast) (Schizosaccharomyces pombe (fission yeast)) (UniProt Q9Y7R3).
T1 sequence: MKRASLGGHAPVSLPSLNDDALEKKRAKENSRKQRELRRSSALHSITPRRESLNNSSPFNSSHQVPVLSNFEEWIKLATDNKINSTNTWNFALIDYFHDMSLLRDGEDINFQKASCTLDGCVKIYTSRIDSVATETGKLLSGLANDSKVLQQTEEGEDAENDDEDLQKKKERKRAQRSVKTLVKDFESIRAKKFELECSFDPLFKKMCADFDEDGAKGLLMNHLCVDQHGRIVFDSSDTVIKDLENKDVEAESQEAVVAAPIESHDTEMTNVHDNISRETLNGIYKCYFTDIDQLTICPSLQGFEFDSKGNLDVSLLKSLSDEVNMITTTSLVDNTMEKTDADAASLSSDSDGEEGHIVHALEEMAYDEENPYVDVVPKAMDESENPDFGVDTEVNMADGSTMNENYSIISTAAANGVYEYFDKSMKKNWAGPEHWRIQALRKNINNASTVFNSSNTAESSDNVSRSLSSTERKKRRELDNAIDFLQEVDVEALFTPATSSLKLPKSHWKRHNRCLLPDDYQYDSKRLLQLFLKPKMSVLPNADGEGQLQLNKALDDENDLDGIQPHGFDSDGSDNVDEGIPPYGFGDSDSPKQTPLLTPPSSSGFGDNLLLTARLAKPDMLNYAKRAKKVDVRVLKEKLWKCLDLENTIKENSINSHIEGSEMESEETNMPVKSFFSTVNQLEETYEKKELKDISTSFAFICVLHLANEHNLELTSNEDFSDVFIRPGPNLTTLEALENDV
As to the kind of experiment: co-IP.

B1: Cnd1-Myc (wild type, expressed from its endogenous locus in fission yeast) (protein, UniProt O94679 1-1158)
chain: MSLDLLSRLKKYIHDEENSDLDSIYAECENAGLTAVVNDVIDTLLLGTSSCFDEDCLEKLFAICSHFADLSSSVRNKVYDLLTSNISSESAILEDMISANATDFTVPQTNLETTGIAFQLTVNSLSSSNQLSVIRSSTNTVKGRKKNPTTNSNWNGISHVNALLDAIITLFQKKLSRVWTTSSERDMFLSLFLKPIYTLMESEINIKNASFRSRLFNIIGLAVQFHNHTTAAETNIIQNLQYFEHLSEYAADLVHIVTVQFNSVTLAEGIIRTLCSLEFNDNDVKGPKQVALFLVRLSSLIPNLCLKQLTQLVKLLDSESYTLRCAIIEVLANVVIDQIHDEAQNEMSESVPATVQSLMDLLSERLLDISPYCRTKVLHVFIKIFDLPIKYPRKRQEIAELVIRCLQDRSSHVRRNAIKLFSKLLTTHPFSVMHNGLLTRNIWEKGLSIIEEQLNSLQPKQQEKVVDSELEVDENLLEDATMIQDDESHEGESHLENSLSEYVDSVPAEEIVKVNLTKRFYLEALQYIDIVEAGAKIISQLLFAKNKSEVIESMDFFVFCNSFGISSSKLYIKKMIHLIWVKGTSDEGNNIQNHVLSCYKTLFFEPPPNSGTNEAANYIARNLISLTYDASLAELTSLEQMLCILMKDGYFSHLVITKLWQVYSYQKKDISRTQRRGSIIVIGMLALGNTDVVMQGLDHLIQIGLGPPGLEDLVLARYTCIAIKRIGKDASGSSNINFPNSHTLCQKLCMLLLRPSFSEEWFGLEEQAIEAIYAVAKHPDELCTNIILLLTKQLFKPSNHENTTSNDDHAMDEDLDDSPEEETLKDEEEIGIRLAHLIFLVGHVAIKQLVYIEYCEAEFKRRKADAERLAVQNSNNPINGQETSEYDLITGTSEDDFSEAMTFIRERELLYGENSLLSRFAPLVVELCSNHKSHNNQSLLLAASLTLSKFMCLSNNFCMEHLPLLITILEKCDNPIIRNNLVIGLADLTVCFNHFIDEISEYLYRRLMDEESSVKKTCFMTLAFLILAGQIKVKGQLGIMARSLEDEDARISDLARMFFTDFAAKDNSVYNNFIDIFSVLSRSAEEQDEDDAKFKRIIRFLTSFIEKERHTKQLAERLAARLDRCKTQRQWDHVVYALSLLPHKADNIQKLIDDGYHE
Take B1: the binding entry is recorded as “binds”.

B2: Cnd1-K658E-Myc (mutant Cnd1-Myc in fission yeast) (protein, UniProt O94679 1-1158)
chain: B1 chain with K658E
On to B2, for which the binding entry is listed as “binds”.

The record behind these values is paper doi:10.1101/2024.06.26.600663.
